Test results as given in article doi:10.1101/2024.01.09.574928.
Like-named read-outs stand apart in the source and are kept apart here. For some assays here: No signal at the amounts used counts as a negative. For some assays here: For at least one entry, the source does not settle the construct or the ends of the probe. For some assays here: A weaker result is weaker than the reference pair of the same experiment. For some assays here: At least one verdict rests on a figure or table, not on a statement of the authors. For some assays here: Where a protein sequence is shown, tags need not be part of it. For some assays here: At least one result comes from cells or an extract, where the contact may be indirect.

Protein sequences, listed by entry. Tags and fused reporters are not part of them. Lines headed by an entry give the natural chain unless they say otherwise; changes in a name come on top.
UniProt Q9UPN6: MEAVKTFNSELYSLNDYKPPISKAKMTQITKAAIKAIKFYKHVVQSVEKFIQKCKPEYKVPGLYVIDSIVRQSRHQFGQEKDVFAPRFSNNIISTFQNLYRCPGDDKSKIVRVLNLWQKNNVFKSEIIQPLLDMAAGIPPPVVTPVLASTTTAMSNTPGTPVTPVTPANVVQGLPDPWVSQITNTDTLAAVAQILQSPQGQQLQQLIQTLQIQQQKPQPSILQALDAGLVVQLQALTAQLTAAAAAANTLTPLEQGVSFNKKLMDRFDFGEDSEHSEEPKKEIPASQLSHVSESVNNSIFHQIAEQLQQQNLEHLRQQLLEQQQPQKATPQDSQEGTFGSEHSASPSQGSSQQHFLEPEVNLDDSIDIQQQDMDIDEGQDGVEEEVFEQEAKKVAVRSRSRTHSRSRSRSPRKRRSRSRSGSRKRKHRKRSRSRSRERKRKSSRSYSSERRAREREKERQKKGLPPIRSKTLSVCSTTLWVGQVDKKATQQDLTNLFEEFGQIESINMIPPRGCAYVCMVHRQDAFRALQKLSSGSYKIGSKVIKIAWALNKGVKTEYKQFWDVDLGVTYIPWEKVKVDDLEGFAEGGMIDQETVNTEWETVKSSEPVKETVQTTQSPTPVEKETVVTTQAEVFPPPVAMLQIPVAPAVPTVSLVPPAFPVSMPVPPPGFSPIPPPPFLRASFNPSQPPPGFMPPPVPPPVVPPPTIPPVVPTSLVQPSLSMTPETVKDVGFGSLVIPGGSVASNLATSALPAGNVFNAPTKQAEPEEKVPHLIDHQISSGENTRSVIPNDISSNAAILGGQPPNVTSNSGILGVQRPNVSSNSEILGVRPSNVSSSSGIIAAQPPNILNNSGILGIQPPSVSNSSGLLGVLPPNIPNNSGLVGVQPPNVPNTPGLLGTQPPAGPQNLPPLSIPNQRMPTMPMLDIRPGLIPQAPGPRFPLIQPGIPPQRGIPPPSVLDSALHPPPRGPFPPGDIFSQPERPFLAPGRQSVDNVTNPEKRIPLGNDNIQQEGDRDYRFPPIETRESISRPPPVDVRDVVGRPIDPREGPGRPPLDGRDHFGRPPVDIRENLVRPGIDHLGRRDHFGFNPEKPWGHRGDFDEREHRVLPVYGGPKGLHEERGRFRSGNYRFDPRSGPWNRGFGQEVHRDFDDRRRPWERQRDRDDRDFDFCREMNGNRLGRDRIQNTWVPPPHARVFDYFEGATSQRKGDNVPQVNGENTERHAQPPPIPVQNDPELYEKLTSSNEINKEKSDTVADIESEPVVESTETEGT

Tests used:
[1] = biological target: SCAF4 (endogenous) (UniProt O95104); experiment: pull-down; details: HCT116 lysate, protein in an extract
[2] = biological target: SCAF8 (endogenous) (UniProt Q9UPN6); experiment: pull-down; details: HCT116 lysate, protein in an extract
[3] = biological target: BSA (UniProt P02769); experiment: specificity binding assay; details: letters put together from the description
[4] = biological target: streptavidin (UniProt P22629); experiment: specificity binding assay
[5] = biological target: WDR5 N225 mutant (UniProt P61964); experiment: fluorescence polarization
[6] = biological target: WDR5 V268 mutant (UniProt P61964); experiment: fluorescence polarization
[7] = biological target: T1, SCAF4-CID (human) (UniProt O95104); experiment: SPR; details: 10 uM, weak or negligible response; residues 1-139
T1 sequence (looked up): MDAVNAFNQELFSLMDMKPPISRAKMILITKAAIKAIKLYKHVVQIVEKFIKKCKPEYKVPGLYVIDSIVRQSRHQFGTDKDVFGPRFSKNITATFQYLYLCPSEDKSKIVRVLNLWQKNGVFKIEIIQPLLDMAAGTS

[8] = letters put together from the description

Sequence: ATGACTCCCCACCCCTTTAA [RC of SRiApt-3]
- binding result [1]: no binding
- binding result [2]: no binding

Sequence: GGGGTGGGGAG [SRiApt-1 (SCAF4_F3_11nt)]
- binding result [3]: no binding
- binding result [4, 8]: no binding

Sequence: GGGGGCTGGACCCCTCAACT [WMiApt-1]
- binding result [5]: binds more weakly
- binding result [6]: binds more weakly
- binding result [4]: no binding

Sequence: CTCCCCACCCC [RC of SRiApt-1]
- binding result [1]: no binding
- binding result [2]: no binding

Sequence: GGGGTGGGGAG [SRiApt-1 biotinylated]
- binding result [1, 8]: binds
- binding result [2, 8]: binds

Sequence: CTGGG
- binding result [7]: binds more weakly

Sequence: TTAAAGGGGTGGGGAGTCAT [SRiApt-3 biotinylated]
- binding result [1, 8]: binds
- binding result [2, 8]: binds
